Out of some 350,000 compounds screened, about 220 (0.063%) were called active. The shares of active, inactive and inconclusive entries below differ from those in the screen. Calls come from the whole dose curve; as a rule, active = well fitted activation curve with a large enough effect; inconclusive = small, poorly fitted or top-dose-only effect; inactive = no such curve, though single readings can be large or run the other way. Where the call is inconclusive, the potency comes from a doubtful curve fit.
Experiment: qHTS for Activators of Integrin-Mediated Alleviation for Muscular Dystrophy; note: nearly all actives have a fitted effect of over 60% in size;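 for activation: 100% = response of the positive control SU9516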
Conditions: alpha7betagal myoblasts, beta-gal FDG fluorescence, 48 h; activation: at 38.3 µM (top of the series)
Summary of the method: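 alpha7betagal+/- myoblasts (passage 13, 250/well) treated 48 h at 37C with compounds at 1:260 dilution of DMSO stock. Lysed, then beta-galactosidase activity read as FDG fluorescence (ex 480/em 540) after 30 min, with pre-read for autofluorescence.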
Potency is the fitted concentration of half-maximal effect.

Row | Compound | Potency | activation
1 | Cc1ccccc1NS(=O)(=O)c1ccc2c3c(cccc13)C(=O)N2C | inconclusive: 22.4 µM [activator, single point] | 
2 | COc1ccc(N(CC(=O)N/N=C/c2ccc(N(C)C)cc2)S(=O)(=O)c2ccccc2)cc1 | inconclusive: 5.01 µM [activator, single point] | 
3 | Cc1ccc(S(=O)(=O)N2CCOCC2)cc1NC(=O)COC(=O)CCOc1ccc(C(C)(C)C)cc1 | inconclusive: 5.62 µM [activator, partial curve, poor fit] | 
4 | COC(=O)c1c(C)[nH]c(C(=O)C(C)OC(=O)C2CC(=O)N(c3ccc(C)cc3)C2)c1C (centres undefined) | inactive | 
5 | CC(C)CCc1noc(CN(CC2CCC2)CC2CCCO2)n1 (centres undefined) |  | inconclusive: -5.06% [activator]
6 | Cc1ccc(S(=O)(=O)NCc2ccccc2)cc1C(=O)NC1CCC(C)CC1 (centres undefined) | inconclusive: 28.2 µM [activator, single point] | 
7 | COc1ccc(N(C)C(=O)Cc2c(C(=O)O)n(C)c3ccccc23)c(OC)c1 | inactive | 
8 | CCOC(=O)N1CCC(N2Cc3cccc(C(=O)Nc4ccc(S(=O)(=O)N(CC)CC)cc4)c3C2=O)CC1 | inconclusive: 11.2 µM [activator, partial curve, poor fit] | 
9 | COc1ccc(Cl)cc1C(=O)NNC(=O)CSc1nncn1C | inactive | 
10 | CCOC(=O)Cc1csc(NC(=O)c2cnc3sc(C)cn3c2=O)n1 | inconclusive: 10 µM [activator, partial curve, poor fit] | 
11 | CC(=O)N1CCN(c2nc(-c3ccco3)c3c(c2C#N)CC(C)(C)SC3)CC1 | inactive | 
12 | CC1CCN(Cc2nnnn2CCCC(=O)N(C)C(C)c2ccccn2)CC1 (centres undefined) | inconclusive: 3.55 µM [activator, full curve, poor fit] | 
13 | Cc1sc2nc(CN(C(=O)c3cccs3)C3CCCC3)[nH]c(=O)c2c1C | inactive | 
14 | NS(=O)(=O)c1ccc(NC(=O)Cc2c(F)cccc2Cl)cc1 | inconclusive: 5.62 µM [activator, single point] | 
15 | CCCC(=O)OCC(=O)Nc1ccc(OC(F)F)cc1 | inconclusive: 5.01 µM [activator, single point] | 
16 | COc1cc(NC(=O)c2ccccc2)c(C)cc1NC(=O)CC(CC(=O)O)c1ccccc1 (centres undefined) | inconclusive: 5.01 µM [activator, single point] | 
17 | CN(C(=O)Cn1nc(Cl)ccc1=O)C1CCCN(Cc2ccccc2F)C1 (centres undefined) | inconclusive: 28.2 µM [activator, single point] | 
18 | Cc1ccc(NC(=O)c2cnn(-c3ccccc3)c2C)cc1 | inconclusive: 10 µM [activator, partial curve, poor fit] | 
19 | CCCCCCOC(=O)C(C#N)c1nc2ccccc2nc1N1CCOCC1 (centres undefined) | inactive | 
20 | Cc1cc(C)cc(C(=O)NCC(=O)OCc2nc(N)nc(Nc3ccccc3C)n2)c1 | inconclusive: 0.501 µM [activator, partial curve, poor fit] | 
21 | COc1ccc(NC2c3ccccc3C(=O)N2Cc2ccccc2Cl)cc1OC (centres undefined) | inconclusive: 22.4 µM [activator, single point] | 
22 | N#C/C(=C(/O)CCl)c1nc2c(s1)CCc1ccccc1-2 | inconclusive: 11.2 µM [activator, partial curve, poor fit] | 
23 | COc1ccc(CCNC(=O)CSc2ccc(-c3cccs3)nn2)cc1 | inconclusive: 1 µM [activator, partial curve, poor fit] | 

Row | Compound | Potency | activation
24 | Cc1cc(NC(=O)CCCn2nc(C)c([N+](=O)[O-])c2C)no1 | inconclusive: 5.62 µM [activator, partial curve, poor fit] | 
25 | COc1cc(OC)c(OC)cc1CNCCNC(=O)c1nonc1N | inconclusive: 31.6 µM [activator, single point] | 
26 | Cc1nc(CN2CCCCC2)cc(=O)[nH]1 | inconclusive: 2.82 µM [activator, single point] | 
27 | COCCOC(=O)C(C#N)c1nc2ccccc2nc1N1CCN(Cc2ccccc2)CC1 (centres undefined) | inactive | 
28 | Cc1c(C(=O)O)oc2ccc(S(=O)(=O)NCc3ccccc3)cc12 | inconclusive: 5.62 µM [activator, single point] | 
29 | COc1ccc(-c2noc(CN(C(=O)c3ccoc3C)C(C)C)n2)cc1 | inconclusive: 7.08 µM [activator, partial curve, poor fit] | 
30 | CC(NCc1ccccc1O)C12CC3CC(CC(C3)C1)C2 (centres undefined) | inconclusive: 2.82 µM [activator, single point] | 
31 | CCc1ccccc1NS(=O)(=O)c1ccc2[nH]cc(C(=O)NCc3ccco3)c(=O)c2c1 | inconclusive: 31.6 µM [activator, partial curve, poor fit] | 
32 | N/C(=N\OC(=O)c1ccc2c(c1)OCO2)c1ccc(Cl)cc1 | inactive | 
33 | O=C(Nc1ccc2oc(-c3ccccc3Cl)nc2c1)c1cncc(Br)c1 | inconclusive: 3.55 µM [activator, partial curve, poor fit] | 
34 | COc1cc(C(=O)Nc2nc(-c3cc(C)ccc3C)c(C)s2)ccc1OCC(=O)Nc1ccc(F)cc1 | inactive | 
35 | NCCc1nc(-c2ccccc2)cs1 | inconclusive: 3.16 µM [activator, partial curve, poor fit] | 
36 | CN(CC1CCCN(CCc2cccc(C(F)(F)F)c2)C1)C(=O)c1ccco1 (centres undefined) | inactive | 
37 | COc1ccc(C2NC(=O)C(C#N)=C(S)N2c2ccc(C)cc2)cc1OC (centres undefined) | inactive | 
38 | Cc1ccc(OCC(=O)N2CCN(S(=O)(=O)c3ccc4c(c3)OCCO4)CC2)c(C)c1 | active: 2 µM | 
39 | Nn1c(SCC(=O)NCC2CCCO2)nnc1-c1cc(Cl)ccc1Cl (centres undefined) | inactive | 
40 | c1ccc(-c2cc(-c3nc4ccccc4[nH]3)c3ccccc3n2)cc1 | inconclusive: 12.6 µM [activator, partial curve, poor fit] | 
41 | Cc1ccc2c(c1)c(N=Nc1cccc(C(=O)O)c1)c(O)n2C | inconclusive: 3.16 µM [activator, single point] | 
42 | O=C(NCc1cccnc1)c1ccccc1NS(=O)(=O)c1ccccc1 | inconclusive: 11.2 µM [activator, partial curve, poor fit] | 
43 | Cc1ccc(C)c(NC(=O)CN(C)C(=O)c2sccc2C)c1 | inconclusive: 2.51 µM [activator, full curve, poor fit] | 
44 | COCCNC(=O)/C(C#N)=C/c1cccc(/C=C(\C#N)C(=O)NCCOC)c1 | inactive | 
45 | O=C(Nc1cccc(S(=O)(=O)N2CCOCC2)c1)c1ccc(N2CCCC2=O)cc1 | inconclusive: 5.01 µM [activator, partial curve, poor fit] | 
46 | CCCCn1c(CCC)nc([N+](=O)[O-])c1Sc1ccc(Cl)cn1 | inactive | 

Quoted at random: 2 records from the list
Row | Compound | Potency | activation
30 | CC(NCc1ccccc1O)C12CC3CC(CC(C3)C1)C2 (centres undefined) | inconclusive: 2.82 µM [activator, single point] | 
42 | O=C(NCc1cccnc1)c1ccccc1NS(=O)(=O)c1ccccc1 | inconclusive: 11.2 µM [activator, partial curve, poor fit] | 

Later entries

Row | Compound | Potency | activation
47 | O=C(c1ccc(S(=O)(=O)N2CCCCCC2)cc1)N(c1ccccn1)C1CCCCC1 | inconclusive: 28.2 µM [activator, single point] | 
48 | C/C(CCc1ccc2c(c1)OCO2)=N\NC(=S)NC(C)C | inactive | 
49 | CCc1c(C2(O)CCCCC2)[nH]c2ncccc12 | active: 10 µM | 
50 | COC(=O)CCSCc1cn2cc(Cl)ccc2n1 | inactive | 
51 | Cc1ccc(NC(=O)CN2C(=O)NC(C)(C3CC3)C2=O)c([N+](=O)[O-])c1 (centres undefined) | inconclusive: 11.2 µM [activator, single point] | 
52 | Cc1ccc(/C=N/NC(=O)c2cccs2)s1 | inconclusive: 20 µM [activator, single point] | 
53 | Cc1ccc(NC(=S)N(CCN2CCOCC2)Cc2ccccc2F)cc1Cl | inconclusive: 5.01 µM [activator, single point] | 
54 | CCN(CCCNC(=O)C1CCN(S(=O)(=O)c2cnc[nH]2)CC1)c1cccc(C)c1 | inactive | 
55 | C=CCNc1cnn(-c2ccc(C)cc2)c(=O)c1Sc1ccc(C)cc1 | inconclusive: 12.6 µM [activator, single point] | 
56 | CN(C)CCCNc1ncnc2oc(-c3ccccc3)c(-c3ccccc3)c12 | inconclusive: 11.2 µM [activator, single point] | 
57 | Cn1c(=O)cc(N2CCN(C(=O)c3ccco3)CC2)[nH]c1=O | inactive | 
58 | CCC(C)NC(=O)C1CCC(CNS(=O)(=O)c2cccc3nsnc23)CC1 (centres undefined) | inconclusive: 28.2 µM [activator, single point] | 
59 | COc1cc(NC(=O)c2cccs2)ccc1NC(=O)c1ccco1 | inconclusive: 4.47 µM [activator, single point] | 
60 | CN(C)S(=O)(=O)c1cccc(-c2nnc3n2CCCCC3)c1 | inconclusive: 5.01 µM [activator, single point] | 
61 | COc1cccc(CNC(=O)c2ccncc2)c1 | inconclusive: 28.2 µM [activator, single point] | 
62 | O=c1c2cnn(-c3ccccc3)c2nc(-c2ccco2)n1-c1ccccc1 |  | inactive: -15.7% [at 7.66 µM]
63 | CC(=O)NN1C(=O)/C(=C\c2ccc(Br)o2)SC1=S | inactive | 
64 | O=C(NC(NC(=S)Nc1cccc(C(=O)O)c1)C(Cl)(Cl)Cl)OCc1ccccc1 (centres undefined) | inactive | 
65 | COc1ccc(CCNC(=O)COC(=O)C2CCCCC2)cc1 | inconclusive: 5.62 µM [activator, partial curve, poor fit] | 
66 | CCN(CCO)c1ccc(N=Nc2cc(C)[nH]n2)cc1 | inconclusive: 10 µM [activator, partial curve, poor fit] | 
67 | Cc1nn(C)c(Oc2ccccc2)c1CCNS(=O)(=O)c1ccccc1 | inconclusive: 1 µM [activator, full curve, poor fit] | 
68 | CC(NS(=O)(=O)OCC(Cl)(Cl)Cl)c1ccc(C(C)(C)C)cc1 (centres undefined) | inactive | 
69 | COc1ccc2c(c1)OC[C@H]1[C@H]2N2C(=O)c3cc(F)ccc3NC(=O)[C@@]2(C)[C@H]1c1ccccc1 | inactive | 

In another format: 4 of the compounds above

| Row | Compound | Potency | activation |
| --- | --- | --- | --- |
| 47 | O=C(c1ccc(S(=O)(=O)N2CCCCCC2)cc1)N(c1ccccn1)C1CCCCC1 | inconclusive: 28.2 µM [activator, single point] |  |
| 57 | Cn1c(=O)cc(N2CCN(C(=O)c3ccco3)CC2)[nH]c1=O | inactive |  |
| 61 | COc1cccc(CNC(=O)c2ccncc2)c1 | inconclusive: 28.2 µM [activator, single point] |  |
| 66 | CCN(CCO)c1ccc(N=Nc2cc(C)[nH]n2)cc1 | inconclusive: 10 µM [activator, partial curve, poor fit] |  |
